Data as given in PubChem BioAssay AID686943 (Drosophila RNAi Screening Center, 2013).

Test: 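Search across the genome for regulators of signalling from receptor tyrosine kinase to ERK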 (primary screen)
System: Drosophila S2R+ haemocyte-like cells expressing YFP-tagged ERK (Rolled)
Reagents: long dsRNA against Drosophila genes
Treatment: insulin stimulation versus unstimulated cells; dose and duration not given
Measured: 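Antibody staining for doubly phosphorylated ERK divided by ERK-YFP signal, as plate z-scores, in insulin-treated and untreated cells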
Reading the numbers: replicate 1, z-score of dpERK with insulin and replicate 2, z-score of dpERK with insulin: higher = more active ERK per ERK-YFP after insulin; replicate 1, z-score of dpERK under basal conditions: higher = more basal active ERK per ERK-YFP; replicate 1, z-score of ERK-YFP with insulin: higher = more YFP-tagged ERK signal
The deposit covers about 23,000 reagents; this is a random part of those with a known target gene and a result. 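Extra replicates exist only for a retested subset of genes; insulin dose and duration not given; both raised and lowered dpERK matter.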 Reagents against one gene are numbered here. Names joined by + are all predicted targets of the reagent. The record does not give: the amount of reagent, the time to read-out.

The first 6 entries as a preview:
Gene | reagent | replicate 1, z-score of dpERK with insulin | replicate 2, z-score of dpERK with insulin | replicate 1, z-score of dpERK under basal conditions | replicate 1, z-score of ERK-YFP with insulin
CG1387 | 1 | 0.8 | 1 | 0.11 | 0.61
rk (rickets) | 1 | -0.26 | -0.08 | 0.83 | 0.58
CG4021 | 1 | -0.41 | 0.33 | 0.11 | 0.7
CG16898 | 1 | -1.26 | 0.01 | -0.13 | 0.72
Spc25 | 1 | -1.5 | -1.14 | -1.23 | -0.71
sno (strawberry notch) | 1 | -0.06 | -0.73 | -0.5 | 1.29

Results, repeating the preview:
Gene | reagent | replicate 1, z-score of dpERK with insulin | replicate 2, z-score of dpERK with insulin | replicate 1, z-score of dpERK under basal conditions | replicate 1, z-score of ERK-YFP with insulin
CG1387 | 1 | 0.8 | 1 | 0.11 | 0.61
rk (rickets) | 1 | -0.26 | -0.08 | 0.83 | 0.58
CG4021 | 1 | -0.41 | 0.33 | 0.11 | 0.7
CG16898 | 1 | -1.26 | 0.01 | -0.13 | 0.72
Spc25 | 1 | -1.5 | -1.14 | -1.23 | -0.71
sno (strawberry notch) | 1 | -0.06 | -0.73 | -0.5 | 1.29
ap (apterous) | 1 | 0.42 | 0.75 | 0.23 | -0.12
l(3)72Dn (lethal (3) 72Dn) | 1 | -0.23 | 0.08 | -0.92 | 0.88
PK2-R1 (Pyrokinin 2 receptor 1) | 1 | -1.16 | 0.35 | 0.13 | 0.95
CG5290 | 1 | -0.14 | -0.32 | 1.22 | 1.23
CG1463 | 1 | 0.58 | 0.31 | 4.76 | -0.74
CG42340 | 1 | 0.42 | -1.34 | -0.02 | 0.17
CG42340 | 2 | 1.03 | -1.53 | 0.68 | -0.1
CG42340 | 3 | 1.36 | 0 | -0.99 | -1.12
CG42340 | 4 | 0.35 | -0.31 | 0.53 | -0.77
Dnaaf5 (Dynein axonemal assembly factor 5) | 1 | 0.73 | 0.64 | -1.57 | 0.17
CR15280 (pseudo) | 1 | 1.53 | 1.64 | 1.05 | -0.28
SmydA-3 (SET and MYND domain containing, arthropod-specific, member 3) | 1 | -0.89 | -0.45 | 0.15 | -0.43
SmydA-3 (SET and MYND domain containing, arthropod-specific, member 3) | 2 | 0.13 | 0.77 | 0.85 | -0.29
RIC-3 (RIC3 acetylcholine receptor chaperone) | 1 | -0.16 | 0.78 | -0.43 | -0.04
RIC-3 (RIC3 acetylcholine receptor chaperone) | 2 | -0.27 | -2.83 | -0.51 | -0.74
AdipoR (Adiponectin receptor) | 1 | 0.42 | 0.06 | 0.02 | 0.67
CG5569 | 1 | 0.29 | 1.57 | -1.03 | -1.05
Bsg (Basigin) | 1 | -0.09 | -2.29 | -2.25 | 0.45
Bsg (Basigin) | 2 | 2 | 1.68 | 2.63 | -1.21
CG34228 | 1 | 0.16 | 0.66 | -0.02 | -0.35
CG14641 | 1 | 2.32 | 1.62 | -0.96 | 0.03
CG3347 | 1 | -0.25 | -0.83 | -0.69 | -0.31
phu (phurba tashi) | 1 | 0.02 | 0.21 | 0.48 | 0.65
CG4563 | 1 | -0.26 | 0.13 | -0.13 | 0.19
CG31125 | 1 | 4.75 | 1.38 | -0.13 | -1.55
IntS6 (Integrator 6) | 1 | -2.12 | -2.12 | -1.24 | -0.33
Vap33 (VAMP-associated protein 33kDa) | 1 | 0.26 | 0.71 | -0.33 | -0.59
CG9875 | 1 | 0.04 | -0.52 | 1.42 | 0.04
CG7083 | 1 | 0.3 | 0.41 | -0.48 | -1.29
CG11095 | 1 | 0.86 | 0.45 | -0.11 | 0.04
CG7137 | 1 | 0.28 | -0.03 | 0.04 | -0.23
Cp19 (Chorion protein 19) | 1 | -0.8 | 0.07 | – | 0.43
mtg (mind the gap) | 1 | -0.66 | 0.06 | 1.09 | 0.37
fd3F + CR42499 | 1 | -0.24 | -0.09 | -0.88 | 0.68
fd3F + CR42499 | 2 | 0.22 | 0.22 | -0.5 | 1.19
CG13813 | 1 | -0.64 | 0.7 | 0.99 | 0.07
FER (FER tyrosine kinase) | 1 | 2.28 | 1.2 | 1.16 | 1.05
FER (FER tyrosine kinase) | 2 | -0.19 | 0.16 | 1.79 | 0.34
Drep2 (DNA fragmentation factor-related protein 2) | 1 | -0.41 | 0.1 | 0.12 | 0.31
CG8750 | 1 | -1.12 | 0.24 | -0.77 | 0.54
Pop1 (POP1 ribonuclease P/MRP subunit) | 1 | -0.32 | -1.48 | -0.13 | 0.78
tef (teflon) | 1 | -0.1 | -0.7 | 0.78 | -0.07
tef (teflon) | 2 | -0.04 | 0.07 | 0.49 | -0.4
prg (piragua) | 1 | 0.36 | -0.77 | 0.22 | 0.25
Nup98-96 (Nucleoporin 98-96kD) | 1 | -0.54 | 1.14 | 3.82 | -3.69
Nup98-96 (Nucleoporin 98-96kD) | 2 | 0.91 | 0.12 | -0.72 | -5.44
CG18418 | 1 | 1.32 | 1.09 | 0.17 | -0.16
CG1840 | 1 | 0.92 | 0.48 | -0.6 | 0.43
Sbds (SBDS ribosome maturation factor) | 1 | 0.04 | 0.07 | -0.2 | 0.84
Atg4a (Autophagy-related 4a) | 1 | 0.3 | 0.83 | -1.59 | 0.03
CG31928 | 1 | 0.73 | 0.21 | -0.12 | 0.03
